{"source": "patent US20240287501A1", "key": {"[1]": {"molecular_target": "T1, FBA1 (native, from EBY100 lysate) (Saccharomyces cerevisiae) (UniProt P14540)", "T1 sequence (looked up)": "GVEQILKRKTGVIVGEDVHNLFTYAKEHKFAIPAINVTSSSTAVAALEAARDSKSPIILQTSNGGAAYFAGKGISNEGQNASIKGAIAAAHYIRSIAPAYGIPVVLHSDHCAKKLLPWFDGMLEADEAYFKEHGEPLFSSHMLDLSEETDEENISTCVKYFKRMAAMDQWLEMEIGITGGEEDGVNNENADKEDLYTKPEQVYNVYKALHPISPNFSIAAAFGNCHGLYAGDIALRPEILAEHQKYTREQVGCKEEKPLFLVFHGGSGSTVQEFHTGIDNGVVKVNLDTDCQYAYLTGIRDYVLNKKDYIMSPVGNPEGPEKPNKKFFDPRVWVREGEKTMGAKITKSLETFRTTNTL", "test": "co-IP, Nb on NHS-agarose beads, EBY100 yeast lysate, SDS-PAGE, band identified by mass spectrometry"}, "[2]": {"molecular_target": "T2, GFP-tagged FBA1 (Saccharomyces cerevisiae) (UniProt P14540)", "T2 sequence (looked up)": "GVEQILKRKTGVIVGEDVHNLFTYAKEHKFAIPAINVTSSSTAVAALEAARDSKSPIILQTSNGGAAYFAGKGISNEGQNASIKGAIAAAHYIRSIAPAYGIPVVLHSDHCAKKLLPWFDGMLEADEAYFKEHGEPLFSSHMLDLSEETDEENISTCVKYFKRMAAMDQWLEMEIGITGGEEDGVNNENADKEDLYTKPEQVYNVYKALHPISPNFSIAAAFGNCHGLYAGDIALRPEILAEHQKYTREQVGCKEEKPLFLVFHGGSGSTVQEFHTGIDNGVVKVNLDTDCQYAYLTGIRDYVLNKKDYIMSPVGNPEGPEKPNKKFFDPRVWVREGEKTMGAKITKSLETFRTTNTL", "test": "co-IP, Nb on NHS-agarose beads, lysate of GFP-fusion yeast strain, SDS-PAGE, anti-GFP Western blot, mass spectrometry"}}, "note": "No constants are given. Whether binding was seen depends on the method and setting. Binding seen in cells or lysates may run through a third protein. Here binding means that the protein was enriched with, or labelled near, the bait; the list need not be complete. Where a sequence is shown, tags or fusion partners need not be part of it."}
{"binder": "CA17443 (VHH) VHH: QVQLVESGGGSVQPGGSLRLSCAASGNILRIYSMGWSRQAPGKQRELVASITRAGSTRYADSVKGRFTISRDSTNNMVYLQMNSLEPEDTAVYFCNANPVYDGSAGYWGQGTQVTVSS", "values": [{"measurement": "binding", "setting": "[1]", "value": "binds"}, {"measurement": "binding", "setting": "[2]", "value": "binds"}]}
